From PMC4236421 come the findings set out here.

The assay concerns the target GST-Nck1 SH2 domain (UniProt P16333). Description: pull-down; GST fusion proteins on glutathione agarose beads mixed with total cell lysates of HEK293 cells overexpressing FLAG-PTP1B for 3 h at 4°C; washed with lysis buffer; immunoblot with anti-FLAG; only the target purified. For orientation: Immunoblotting shows a protein as a band on a membrane.

No constants are given. Whether binding was seen depends on the method and setting. Binding seen in cells or lysates may run through a third protein. Where a sequence is shown, tags or fusion partners need not be part of it.

B1: FLAG-rat PTP1B (enzyme, UniProt P20417 1-432)
chain: MEMEKEFEQIDKAGNWAAIYQDIRHEASDFPCRIAKLPKNKNRNRYRDVSPFDHSRIKLHQEDNDYINASLIKMEEAQRSYILTQGPLPNTCGHFWEMVWEQKSRGVVMLNRIMEKGSLKCAQYWPQKEEKEMVFDDTNLKLTLISEDVKSYYTVRQLELENLATQEAREILHFHYTTWPDFGVPESPASFLNFLFKVRESGSLSPEHGPIVVHCSAGIGRSGTFCLADTCLLLMDKRKDPSSVDIKKVLLEMRRFRMGLIQTADQLRFSYLAVIEGAKFIMGDSSVQDQWKELSHEDLEPPPEHVPPPPRPPKRTLEPHNGKCKELFSNHQWVSEESCEDEDILAREESRAPSIAVHSMSSMSQDTEVRKRMVGGGLQSAQASVPTEEELSPTEEEQKAHRPVHWKPFLVNVCMATALATGAYLCYRVCFH
Take B1: the binding result is “no binding”.
